PubChem BioAssay AID743454 | Peter MacCallum Cancer Centre – 2014

- Aim: 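Genes whose loss kills vorinostat-resistant colon cancer cells under vorinostat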 (primary screen)
- Cell system: human HCT116-VR colon cancer cells, selected for vorinostat resistance
- Reagents: siRNA pool against human genes, 40 nM siRNA pool
- Time to read-out: vorinostat for 24 h, read-out about 72 h after transfection
- Treatment: vorinostat at 2.5 µM final
- Detection: 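Two measures, CellTiter-Fluor viability and luminescent caspase 3/7 activity, each as fold change against same-plate mock wells, mean of duplicates, then screen-wide robust z-score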
- Scale: viability robust z-score: higher = more viable cells than screen typical; caspase robust z-score: higher = more caspase 3/7 activity than screen typical
- Active means: 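a knock-down is a hit when classed RV1 or RV2 for lowered viability, or CA1 or CA2 for caspase activation; those lethal without drug were dropped; hits were retested singly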
Here is an unselected part of about 18,000 reagents tested. Over the whole deposit, 450 (2.5%) were called active. 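Single biological run; no consistent viability z cut-off exists, so the class columns, not z-scores, define the calls.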 Reagent sequences are not shown.

| target gene | viability hit class | caspase hit class | viability robust z-score | caspase robust z-score | Call |
| --- | --- | --- | --- | --- | --- |
| SSMEM1 | no change | no change | -0.43 | -0.74 | inactive |
| HLX | no change | no change | -1.1 | -0.3 | inactive |
| HPR | no change | no change | -0.7 | 0.48 | inactive |
| GAS2L2 | no change | no change | -0.32 | 0.16 | inactive |
| EPHA2 | no change | no change | 0.36 | -0.13 | inactive |
| PLD3 | no change | no change | 0.52 | 2.42 | inactive |
| CD276 | no change | no change | 1.58 | 0.43 | inactive |
| SYNPO2 | no change | no change | 0.51 | 0.55 | inactive |
| MRPS2 | no change | no change | -0.57 | 3.56 | inactive |
| TNFRSF1A | no change | no change | 0.72 | 1.52 | inactive |
| DYNC1LI1 | no change | no change | 1.08 | -0.56 | inactive |
| SYT8 | no change | CA1 (caspase activation) | 0.13 | 5.27 | active |
| SPATA8 | no change | no change | -0.46 | -0.92 | inactive |
| CSRNP3 | no change | no change | 0 | -0.29 | inactive |
| PLEC | no change | no change | 0.8 | 2.46 | inactive |
| TAGLN | no change | no change | -2.12 | 0.04 | inactive |
| ZFYVE19 | no change | no change | 0.55 | -0.02 | inactive |
| SEPTIN1 | no change | no change | 1 | 0.18 | inactive |
| TOR1AIP1 | no change | no change | 1.23 | -0.38 | inactive |
| C10orf55 | no change | no change | -0.7 | -1.72 | inactive |
| MRPL19 | no change | CA2 (caspase activation) | -0.35 | 5.3 | active |
| PRSS3 | no change | no change | -0.1 | 0.9 | inactive |
| NT5DC3 | no change | no change | -1.19 | -1.06 | inactive |
| INTS6 | no change | CA1 (caspase activation) | -0.08 | 9.39 | active |
| ARF6 | no change | no change | 0.06 | 0.21 | inactive |
| MGP | no change | no change | -0.84 | -0.21 | inactive |

Continued; the last 5 above are carried over.
| target gene | viability hit class | caspase hit class | viability robust z-score | caspase robust z-score | Call |
| --- | --- | --- | --- | --- | --- |
| PRSS3 | no change | no change | -0.1 | 0.9 | inactive |
| NT5DC3 | no change | no change | -1.19 | -1.06 | inactive |
| INTS6 | no change | CA1 (caspase activation) | -0.08 | 9.39 | active |
| ARF6 | no change | no change | 0.06 | 0.21 | inactive |
| MGP | no change | no change | -0.84 | -0.21 | inactive |
| OR14A16 | no change | no change | 0.55 | 0.03 | inactive |
| CETN3 | no change | no change | -1.46 | 0.68 | inactive |
| TEX13B | no change | no change | 0.34 | 2.3 | inactive |
| METAP2 | no change | no change | 0.02 | -0.18 | inactive |
| FSHR | no change | no change | -1.39 | 4.54 | inactive |
| SWSAP1 | no change | no change | 1.6 | 0.53 | inactive |
| OR8B2 | no change | no change | -0.62 | -0.49 | inactive |
| WDR77 | no change | no change | 1.95 | -0.58 | inactive |
| FRG2B | no change | no change | 0.38 | -1.08 | inactive |
| ITLN1 | no change | no change | 0.95 | 0.8 | inactive |
| PLA2G7 | no change | no change | -0.52 | -0.5 | inactive |
| KLF10 | no change | no change | 0.08 | 0.05 | inactive |
| TUBA1C | no change | no change | -4.04 | 0.57 | inactive |
